Data published in the supplement of paper PMC12595434, “Development of retinoid nuclear receptor pathway antagonists through targeting aldehyde dehydrogenase 1A3” (iScience, 2025).
Some of the results follow. This is a noisy data set.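 Tm was set to 64 °C where no melting was found, and many curves are irregular.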

Sequences of proteins named here, by UniProt entry; tags and fusion partners are left off. A change or cut given only in a name is not applied to a line headed by its entry.
UniProt Q15287: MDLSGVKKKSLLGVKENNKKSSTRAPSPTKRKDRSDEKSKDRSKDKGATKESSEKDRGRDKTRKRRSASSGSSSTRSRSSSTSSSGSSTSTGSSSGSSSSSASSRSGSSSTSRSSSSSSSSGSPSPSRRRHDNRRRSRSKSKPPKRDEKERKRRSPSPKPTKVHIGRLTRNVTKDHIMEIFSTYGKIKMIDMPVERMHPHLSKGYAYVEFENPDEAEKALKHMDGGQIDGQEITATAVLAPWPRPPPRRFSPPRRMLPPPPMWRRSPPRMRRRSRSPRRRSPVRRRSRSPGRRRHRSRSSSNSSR
UniProt Q2NL82: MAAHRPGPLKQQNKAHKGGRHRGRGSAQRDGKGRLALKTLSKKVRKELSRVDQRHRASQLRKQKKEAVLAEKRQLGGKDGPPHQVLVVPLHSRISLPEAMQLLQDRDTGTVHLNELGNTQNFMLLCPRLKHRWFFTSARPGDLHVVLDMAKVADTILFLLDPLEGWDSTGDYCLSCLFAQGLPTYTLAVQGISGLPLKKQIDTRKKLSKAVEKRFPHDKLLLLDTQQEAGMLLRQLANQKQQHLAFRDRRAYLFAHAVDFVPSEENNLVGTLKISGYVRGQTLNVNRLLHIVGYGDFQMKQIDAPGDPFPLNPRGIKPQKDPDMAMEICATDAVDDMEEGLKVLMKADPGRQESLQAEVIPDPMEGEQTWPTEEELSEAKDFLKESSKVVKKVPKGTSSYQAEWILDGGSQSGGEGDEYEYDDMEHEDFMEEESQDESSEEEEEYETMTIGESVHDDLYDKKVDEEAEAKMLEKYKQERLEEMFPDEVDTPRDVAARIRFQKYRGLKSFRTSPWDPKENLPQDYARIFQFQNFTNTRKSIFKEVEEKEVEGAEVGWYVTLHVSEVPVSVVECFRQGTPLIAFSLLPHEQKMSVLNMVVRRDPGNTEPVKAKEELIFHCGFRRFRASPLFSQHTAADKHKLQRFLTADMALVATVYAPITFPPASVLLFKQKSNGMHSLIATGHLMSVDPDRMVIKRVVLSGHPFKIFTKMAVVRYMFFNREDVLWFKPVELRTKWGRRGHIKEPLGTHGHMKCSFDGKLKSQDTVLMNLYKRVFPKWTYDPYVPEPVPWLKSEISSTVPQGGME
UniProt Q2KHT3: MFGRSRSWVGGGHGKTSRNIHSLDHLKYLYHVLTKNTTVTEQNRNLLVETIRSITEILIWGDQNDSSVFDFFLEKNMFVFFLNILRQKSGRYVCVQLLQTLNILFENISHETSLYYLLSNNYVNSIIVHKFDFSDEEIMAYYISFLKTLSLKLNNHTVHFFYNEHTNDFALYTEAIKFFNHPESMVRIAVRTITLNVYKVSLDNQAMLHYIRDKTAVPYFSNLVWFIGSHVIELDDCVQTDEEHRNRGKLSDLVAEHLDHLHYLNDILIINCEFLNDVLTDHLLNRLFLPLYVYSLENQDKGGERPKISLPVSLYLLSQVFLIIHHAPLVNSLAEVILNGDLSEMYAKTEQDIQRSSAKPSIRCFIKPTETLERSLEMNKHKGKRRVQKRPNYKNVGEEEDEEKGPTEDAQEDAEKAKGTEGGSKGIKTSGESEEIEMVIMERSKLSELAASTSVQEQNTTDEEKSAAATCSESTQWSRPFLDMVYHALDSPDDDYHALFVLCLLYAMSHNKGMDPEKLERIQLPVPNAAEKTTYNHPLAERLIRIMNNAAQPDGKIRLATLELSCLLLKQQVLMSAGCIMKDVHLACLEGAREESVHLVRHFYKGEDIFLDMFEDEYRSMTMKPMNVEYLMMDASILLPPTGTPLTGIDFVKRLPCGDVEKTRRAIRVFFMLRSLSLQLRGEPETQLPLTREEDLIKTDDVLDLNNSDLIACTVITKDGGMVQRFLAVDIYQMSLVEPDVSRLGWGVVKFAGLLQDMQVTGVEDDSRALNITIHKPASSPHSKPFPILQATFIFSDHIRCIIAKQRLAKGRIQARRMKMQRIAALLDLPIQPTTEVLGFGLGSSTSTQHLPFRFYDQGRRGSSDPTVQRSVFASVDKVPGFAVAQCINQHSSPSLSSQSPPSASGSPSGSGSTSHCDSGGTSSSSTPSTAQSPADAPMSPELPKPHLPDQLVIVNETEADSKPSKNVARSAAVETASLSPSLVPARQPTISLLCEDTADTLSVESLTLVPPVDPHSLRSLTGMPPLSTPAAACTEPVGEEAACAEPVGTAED
UniProt Q17RY0: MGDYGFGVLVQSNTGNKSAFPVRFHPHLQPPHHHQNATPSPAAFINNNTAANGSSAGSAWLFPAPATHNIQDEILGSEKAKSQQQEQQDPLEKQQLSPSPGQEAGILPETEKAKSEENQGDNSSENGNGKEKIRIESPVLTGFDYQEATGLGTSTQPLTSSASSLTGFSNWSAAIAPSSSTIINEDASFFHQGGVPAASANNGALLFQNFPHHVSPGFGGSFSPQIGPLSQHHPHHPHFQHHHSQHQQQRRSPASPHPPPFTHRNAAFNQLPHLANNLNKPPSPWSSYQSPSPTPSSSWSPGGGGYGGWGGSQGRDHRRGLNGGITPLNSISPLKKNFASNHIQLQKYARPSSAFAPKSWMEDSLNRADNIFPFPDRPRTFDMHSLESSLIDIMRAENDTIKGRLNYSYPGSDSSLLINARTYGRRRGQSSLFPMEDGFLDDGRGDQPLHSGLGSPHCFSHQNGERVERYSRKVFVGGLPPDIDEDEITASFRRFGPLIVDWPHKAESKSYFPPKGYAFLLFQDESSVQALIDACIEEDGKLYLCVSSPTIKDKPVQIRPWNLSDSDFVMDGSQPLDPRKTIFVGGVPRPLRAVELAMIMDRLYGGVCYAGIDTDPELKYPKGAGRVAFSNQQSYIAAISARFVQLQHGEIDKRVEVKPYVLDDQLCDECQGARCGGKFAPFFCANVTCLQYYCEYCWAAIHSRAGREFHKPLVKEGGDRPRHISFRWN
UniProt Q15126: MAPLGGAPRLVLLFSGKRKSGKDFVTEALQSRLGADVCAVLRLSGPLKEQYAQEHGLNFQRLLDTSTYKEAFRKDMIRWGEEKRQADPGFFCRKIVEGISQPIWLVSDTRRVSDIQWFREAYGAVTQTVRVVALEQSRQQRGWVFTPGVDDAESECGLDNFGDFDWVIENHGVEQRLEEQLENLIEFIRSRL
UniProt Q53S33: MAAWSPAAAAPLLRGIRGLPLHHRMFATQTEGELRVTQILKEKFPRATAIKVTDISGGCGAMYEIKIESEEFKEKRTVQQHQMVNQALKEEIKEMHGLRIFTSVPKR
UniProt Q16842: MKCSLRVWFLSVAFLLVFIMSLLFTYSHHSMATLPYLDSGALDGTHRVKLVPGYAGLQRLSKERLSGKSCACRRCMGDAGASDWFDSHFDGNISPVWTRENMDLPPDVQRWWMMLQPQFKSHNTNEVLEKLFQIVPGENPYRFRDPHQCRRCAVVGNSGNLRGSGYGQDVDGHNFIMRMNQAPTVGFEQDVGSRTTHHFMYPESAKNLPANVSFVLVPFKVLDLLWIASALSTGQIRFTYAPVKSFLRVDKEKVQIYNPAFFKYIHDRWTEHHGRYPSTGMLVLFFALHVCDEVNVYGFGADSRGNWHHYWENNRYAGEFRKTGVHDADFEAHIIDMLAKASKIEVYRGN
UniProt Q15464: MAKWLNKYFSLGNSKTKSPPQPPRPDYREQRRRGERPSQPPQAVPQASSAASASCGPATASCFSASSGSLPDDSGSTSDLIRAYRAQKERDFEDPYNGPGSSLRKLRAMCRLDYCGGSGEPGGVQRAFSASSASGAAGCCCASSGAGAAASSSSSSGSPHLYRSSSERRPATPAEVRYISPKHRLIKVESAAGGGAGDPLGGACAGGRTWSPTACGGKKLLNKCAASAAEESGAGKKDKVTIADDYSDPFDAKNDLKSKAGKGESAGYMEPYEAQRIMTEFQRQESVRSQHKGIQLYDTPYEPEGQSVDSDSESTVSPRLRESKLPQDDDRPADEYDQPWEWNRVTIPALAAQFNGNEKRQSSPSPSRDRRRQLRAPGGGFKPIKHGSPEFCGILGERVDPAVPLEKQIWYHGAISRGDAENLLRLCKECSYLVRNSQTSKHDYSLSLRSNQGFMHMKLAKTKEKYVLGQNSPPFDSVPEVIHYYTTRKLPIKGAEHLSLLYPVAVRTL
UniProt Q15363: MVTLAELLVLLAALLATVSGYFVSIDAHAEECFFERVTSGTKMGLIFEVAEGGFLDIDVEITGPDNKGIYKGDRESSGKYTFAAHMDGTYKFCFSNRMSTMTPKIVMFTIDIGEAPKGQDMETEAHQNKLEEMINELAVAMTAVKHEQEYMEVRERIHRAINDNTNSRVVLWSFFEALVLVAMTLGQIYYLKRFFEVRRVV
UniProt Q15386: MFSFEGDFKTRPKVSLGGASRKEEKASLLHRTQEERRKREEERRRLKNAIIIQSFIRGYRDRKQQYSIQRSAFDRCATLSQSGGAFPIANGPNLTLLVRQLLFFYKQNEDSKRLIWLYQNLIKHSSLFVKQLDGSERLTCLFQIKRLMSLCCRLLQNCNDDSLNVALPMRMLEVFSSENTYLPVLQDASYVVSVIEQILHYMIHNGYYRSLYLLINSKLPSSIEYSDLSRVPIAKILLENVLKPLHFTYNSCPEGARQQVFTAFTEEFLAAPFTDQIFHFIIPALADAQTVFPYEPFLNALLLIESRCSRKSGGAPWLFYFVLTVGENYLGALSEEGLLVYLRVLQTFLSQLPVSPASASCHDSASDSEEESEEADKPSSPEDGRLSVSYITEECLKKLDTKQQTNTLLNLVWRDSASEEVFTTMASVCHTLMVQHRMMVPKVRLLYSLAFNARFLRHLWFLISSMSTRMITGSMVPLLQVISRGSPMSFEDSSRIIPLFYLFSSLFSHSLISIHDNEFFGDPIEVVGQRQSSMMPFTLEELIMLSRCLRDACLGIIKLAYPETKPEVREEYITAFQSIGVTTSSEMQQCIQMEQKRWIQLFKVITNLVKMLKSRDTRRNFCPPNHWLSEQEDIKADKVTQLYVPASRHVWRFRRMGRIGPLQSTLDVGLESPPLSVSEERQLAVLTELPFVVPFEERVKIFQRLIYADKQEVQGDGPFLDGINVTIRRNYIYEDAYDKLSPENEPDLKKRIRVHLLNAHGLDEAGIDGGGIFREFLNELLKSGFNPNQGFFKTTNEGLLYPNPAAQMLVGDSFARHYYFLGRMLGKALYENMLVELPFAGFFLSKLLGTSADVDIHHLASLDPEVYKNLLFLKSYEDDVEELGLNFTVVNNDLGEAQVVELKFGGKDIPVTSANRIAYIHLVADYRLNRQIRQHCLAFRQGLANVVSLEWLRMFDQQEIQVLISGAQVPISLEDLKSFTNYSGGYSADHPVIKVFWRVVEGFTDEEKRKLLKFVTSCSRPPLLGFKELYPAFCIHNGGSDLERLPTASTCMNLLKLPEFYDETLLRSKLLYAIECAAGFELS
UniProt Q15650: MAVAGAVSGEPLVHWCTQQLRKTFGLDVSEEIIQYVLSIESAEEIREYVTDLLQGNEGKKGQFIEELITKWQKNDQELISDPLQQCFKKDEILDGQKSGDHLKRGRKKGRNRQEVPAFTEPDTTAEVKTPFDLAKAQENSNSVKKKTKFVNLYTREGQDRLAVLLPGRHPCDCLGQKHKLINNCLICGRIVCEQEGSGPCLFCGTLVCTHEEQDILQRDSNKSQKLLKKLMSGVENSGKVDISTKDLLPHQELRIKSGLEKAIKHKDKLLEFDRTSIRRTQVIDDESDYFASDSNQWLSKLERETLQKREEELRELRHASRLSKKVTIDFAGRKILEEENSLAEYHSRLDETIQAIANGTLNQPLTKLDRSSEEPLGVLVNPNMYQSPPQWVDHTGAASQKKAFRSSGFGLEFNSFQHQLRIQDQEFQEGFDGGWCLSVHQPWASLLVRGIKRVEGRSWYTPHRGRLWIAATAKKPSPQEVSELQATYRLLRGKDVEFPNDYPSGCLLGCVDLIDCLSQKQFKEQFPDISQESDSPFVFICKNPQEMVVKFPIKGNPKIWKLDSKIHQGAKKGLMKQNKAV
UniProt Q15113: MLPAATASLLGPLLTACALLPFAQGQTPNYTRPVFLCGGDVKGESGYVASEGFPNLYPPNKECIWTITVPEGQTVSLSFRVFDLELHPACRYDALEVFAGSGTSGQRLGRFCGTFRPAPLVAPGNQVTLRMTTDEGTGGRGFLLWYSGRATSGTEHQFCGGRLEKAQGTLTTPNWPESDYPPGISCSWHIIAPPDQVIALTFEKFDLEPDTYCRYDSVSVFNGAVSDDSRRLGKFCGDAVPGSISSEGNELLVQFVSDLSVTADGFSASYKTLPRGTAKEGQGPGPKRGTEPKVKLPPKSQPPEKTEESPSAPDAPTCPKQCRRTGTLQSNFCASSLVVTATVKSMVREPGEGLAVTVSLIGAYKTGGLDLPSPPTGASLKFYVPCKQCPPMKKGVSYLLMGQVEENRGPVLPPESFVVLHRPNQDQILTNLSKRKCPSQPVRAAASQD
UniProt Q3KRA6: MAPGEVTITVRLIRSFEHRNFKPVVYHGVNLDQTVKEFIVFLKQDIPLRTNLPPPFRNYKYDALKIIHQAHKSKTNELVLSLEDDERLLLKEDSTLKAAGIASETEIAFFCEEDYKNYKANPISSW

Compound: CCc1cnccc1C(=O)Nc1cc2c(cc1F)NC(=O)CC2
Assay: melting temperature shift (DMSO Tm minus MBE1-treated Tm) in cellular thermal proteome profiling; higher = less thermal stabilization by MBE1 (negative = stabilized by MBE1)
Details: A375

Target | melting temperature shift (MBE1 concentration: 100 nM) [°C] | melting temperature shift (MBE1 concentration: 1 uM) [°C]
FXN (UniProt Q16595) | -1.13 | -2.4
UniProt Q15700 | 0.647 | 1.03
TSC22D1 (UniProt Q15714) | – | -3.71
RNPS1 (UniProt Q15287) | -0.434 | -1.58
FNDC3B (UniProt Q53EP0) | -0.935 | -0.442
UniProt Q15544 | 1.97 | -1.18
UniProt Q15853 | – | 0.0768
TSR1 (UniProt Q2NL82) | -1.01 | -0.397
UniProt Q4AC94 | -0.382 | 1
UniProt Q16739 | -0.275 | –
UniProt Q15723 | – | -0.666
UniProt Q15788 | 0.238 | 3.52
PCM1 (UniProt Q15154) | -0.208 | 0.159
UniProt Q15468 | -1.69 | 0.0733
UniProt Q2KHR2 | -0.39 | -2.58
NDUFA9 (UniProt Q16795) | 0.812 | 0.409
UniProt Q15649 | 0.316 | –
CLEC16A (UniProt Q2KHT3) | 4.36 | –
UniProt Q15582 | -0.704 | 0.159
TSSC1 (UniProt Q53HC9) | -0.805 | 0.0402
UniProt Q17RY0 | 2.34 | 0.397

Target | melting temperature shift (MBE1 concentration: 100 nM) [°C] | melting temperature shift (MBE1 concentration: 1 uM) [°C]
UniProt Q3SY17 | -2.31 | –
MAP3K11 (UniProt Q16584) | – | -1.63
PMVK (UniProt Q15126) | 0.333 | -0.0769
PEA15 (UniProt Q15121) | -0.183 | -0.8
BOLA3 (UniProt Q53S33) | – | 0.0855
TCEB1 (UniProt Q15369) | -0.694 | -0.0794
TRIP13 (UniProt Q15645) | 0.879 | -0.311
UniProt Q16842 | 0.543 | –
HS1BP3 (UniProt Q53T59) | 0.0047 | -0.296
UniProt Q56A73 | – | 0.116
UniProt Q15464 | 0.208 | –
SKIV2L (UniProt Q15477) | -0.888 | -0.183
CCDC88A (UniProt Q3V6T2) | -0.21 | 0.0423
CHD9 (UniProt Q3L8U1) | 0.814 | –
UniProt Q15773 | -0.41 | -0.404
TMED2 (UniProt Q15363) | -0.287 | 1.13
UniProt Q15528 | 0.269 | -0.842
TRADD (UniProt Q15628) | -0.734 | -0.141
PDIA6 (UniProt Q15084) | -0.623 | 0.372
UGP2 (UniProt Q16851) | -0.708 | 0.305
EZH2 (UniProt Q15910) | -0.506 | -0.16

Target | melting temperature shift (MBE1 concentration: 100 nM) [°C] | melting temperature shift (MBE1 concentration: 1 uM) [°C]
UBE3C (UniProt Q15386) | 0.684 | -0.47
UniProt Q16526 | -0.946 | -0.577
UniProt Q49AM3 | 1.11 | -0.788
DDR2 (UniProt Q16832) | 2.37 | -0.647
TKFC (UniProt Q3LXA3) | -1.19 | 0.731
RBBP5 (UniProt Q15291) | -1.4 | -2.32
MAPK14 (UniProt Q16539) | -0.574 | -0.372
ACAP2 (UniProt Q15057) | 0.134 | -0.421
PGS1 (UniProt Q32NB8) | 0.644 | 0.482
UniProt Q53T94 | -0.904 | -2.34
TRIP4 (UniProt Q15650) | 0.451 | 0.795
NDUFAF6 (UniProt Q330K2) | 0.714 | 0.891
SHROOM1 (UniProt Q2M3G4) | 1.22 | -0.275
UniProt Q15113 | -0.751 | -0.141
DLGAP5 (UniProt Q15398) | -1.25 | -1.2
UniProt Q2TAZ0 | -1.22 | 0.436
UniProt Q15506 | -9.26 | -4.36
UniProt Q3KRA6 | 1.13 | 0.122
MAN2A1 (UniProt Q16706) | -1.15 | 0.557
UniProt Q15542 | -0.0256 | -0.378
PUM3 (UniProt Q15397) | -0.0513 | -0.263

17 neighbouring entries already listed:
Target | melting temperature shift (MBE1 concentration: 100 nM) [°C] | melting temperature shift (MBE1 concentration: 1 uM) [°C]
TKFC (UniProt Q3LXA3) | -1.19 | 0.731
RBBP5 (UniProt Q15291) | -1.4 | -2.32
MAPK14 (UniProt Q16539) | -0.574 | -0.372
ACAP2 (UniProt Q15057) | 0.134 | -0.421
PGS1 (UniProt Q32NB8) | 0.644 | 0.482
UniProt Q53T94 | -0.904 | -2.34
TRIP4 (UniProt Q15650) | 0.451 | 0.795
NDUFAF6 (UniProt Q330K2) | 0.714 | 0.891
SHROOM1 (UniProt Q2M3G4) | 1.22 | -0.275
UniProt Q15113 | -0.751 | -0.141
DLGAP5 (UniProt Q15398) | -1.25 | -1.2
UniProt Q2TAZ0 | -1.22 | 0.436
UniProt Q15506 | -9.26 | -4.36
UniProt Q3KRA6 | 1.13 | 0.122
MAN2A1 (UniProt Q16706) | -1.15 | 0.557
UniProt Q15542 | -0.0256 | -0.378
PUM3 (UniProt Q15397) | -0.0513 | -0.263
